## Library screen at single concentrations

The values are deposited in ChEMBL (CHEMBL3988442, “University of Dundee, Small-Polar-MMV Screening Library” (2021)).

T. brucei: 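Whole-parasite assay of Trypanosoma brucei over 72 hours; the read-out is not stated. Concentration: 30 µM. Higher reads as stronger inhibition (inferred: compounds with an IC50 in retests scored well above the rest). Values scatter widely below zero; nearly all retest evidence comes from the higher of the two concentrations used. Size under these conditions: about 64,000 compounds, about 940 of them at 50% or above in at least one test.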
Leishmania in macrophages: 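Cell assay of Leishmania donovani living inside macrophages; the read-out is not stated. Concentration: 30 µM. Direction is inferred from retests: higher values go with stronger inhibition. Of about 69,000 compounds tested this way, about 1,000 (1.5%) reached 50% or more in at least one test.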
Toxoplasma: 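Assay of Toxoplasma gondii numbers, read through their beta-galactosidase reporter with a colour substrate. Concentration: 10 µM. The record gives no direction; the compounds picked for IC50 retests had high values, so higher reads as fewer parasites. Size under these conditions: about 67,000 compounds, about 260 of them at 50% or above in at least one test.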

Results are given as percent effect.
How 0% and 100% were set is not recorded. Most values in the screen are low, and negative values occur.
The compounds are a random part of those screened.
A dash means the value is not listed here; it may have been measured.

Compound,T. brucei,Leishmania in macrophages,Toxoplasma
O=C(CCC1CCCO1)NCCCO (stereo not drawn),-11.19%,44.32%,-6.066%
Cc1cc(CN(C)C(=O)NCc2ccco2)no1,-5.09%,-13.55%,-1.716%
O=C(C1CN(Cc2ccoc2)CC12CCOCC2)N1CCCC1 (stereo not drawn),-30.74%,16.53%,-3.467%
CN1CC2(CCN(C(=O)c3ccc4c(=O)n(C)cnc4c3)CC2)CC1=O,12.73%,26.97%,7.005%
CC(C)(NC(=O)Cc1ccccc1F)C(=O)O,-9.573%,13.72%,-8.143%
[H][C@]12CN(Cc3ccc(OC)cc3)C(=O)[C@@]1([H])CN(S(=O)(=O)CC)C2,-1.108%,17.84%,-1.836%
Cn1ncc2c1NC(=O)CC2c1ccccc1Br (stereo not drawn),-10.64%,-23.73%,-4.478%
CC(=O)N1CCC2(CC1)CN(C(C)=O)CC21CCNC1=O (stereo not drawn),-18.18%,-9.106%,-7.94%
COc1ccc(-n2nc(C(C)=O)c(C(C)=O)c2C)cc1Cl,-6.304%,3.48%,20.81%
CC(C)(C)OC(=O)N1CSC[C@@H]1C(=O)NCc1cccc(C#N)c1,-33.09%,-5.57%,14.36%
O=C(O)C(F)(F)F.O=C1CC(c2ccncc2)C2(CCN(C(=O)c3cccc(F)c3)CC2)N1 (stereo not drawn),-21.03%,-14.31%,-17.94%
COc1cccc(CC(=O)N2CCC(c3ccn4nccc4n3)CC2)c1,29.58%,-2.733%,7.994%
Cc1nccn1-c1ccc(CNC(=O)c2ccc([S+](C)[O-])cc2)cn1 (stereo not drawn),3.18%,21.69%,2.737%
O=C(O)C(F)(F)F.c1cnc(N2CCC3(COCc4cnc(-c5cccnc5)nc43)C2)nc1 (stereo not drawn),-,17.52%,-1.237%
CCc1ccc(C(=O)N2CC[C@](C)(O)[C@H](C)C2)[nH]1,-,14.58%,-7.689%
CNS(=O)(=O)CCn1cc(-c2ccc(OC)c(OC)c2)nn1,-3.529%,27.44%,10.43%
CCN1CCN(C(=O)Cn2nc(C(F)(F)F)c(Br)c2C2CC2)CC1,8.347%,45.88%,11.77%
COc1cc(C(=O)N2CCC(O)(CN3CCOCC3)C(C)(C)C2)ccn1 (stereo not drawn),-27.94%,19.32%,-3.404%
CCn1cc2c(n1)CN(S(=O)(=O)Cc1ccccc1)CC2COC (stereo not drawn),-,11.68%,-14.31%
N#Cc1cccc(C(=O)NS(=O)(=O)c2ccc(C#N)c(Cl)c2)c1,-28.38%,-6.167%,-24.92%
CN1CCN(C(=O)c2cnsn2)c2ccc(F)cc21,-47.67%,-17.89%,-10.92%
O=C(NCCn1ccc(-c2ccccn2)n1)c1ccncc1,-44.41%,2.184%,-2.189%
[H][C@]12CC[C@]([H])(CN(C(=O)N(C)C)C1)N(C/C=C/c1ccc(F)cc1)C2,-2.572%,11.87%,-1.469%
CC(=O)N1CCN(Cc2ccc(F)c(C(F)(F)F)c2)CC(O)C1 (stereo not drawn),-,-7.104%,-17.97%
O=C(c1cccs1)N1CCN(CC2CC2)c2ncccc2C1,-33.24%,18.93%,-5.081%
COc1ccc(-n2ncc3c2NC(=O)CSC3CC(C)C)cc1 (stereo not drawn),-24.01%,33.32%,-18.21%
CC(C)c1nsc(N2CCSCC2)n1,-17.85%,34.76%,-22.43%
O=C(O)C(F)(F)F.[H][C@@]12CCN(C3CCOCC3)C[C@@]1([H])O[C@H](C(=O)N(C)C)C2,-24.01%,11.4%,4.01%
O=C1CC(C(=O)Nc2nnc(-c3cccs3)[nH]2)c2ccccc2N1 (stereo not drawn),3.421%,30.14%,6.723%
CC(C)N(C)Cc1nnc2n1CCCN(c1ncccn1)C2.O=C(O)C(F)(F)F,-48.23%,22.4%,10.24%
Cc1ccc2c(n1)N(CCN(C)C)CCN(C(=O)c1ccc[nH]1)C2.O=C(O)C(F)(F)F.O=C(O)C(F)(F)F,4.99%,20.64%,-3.161%
Cc1cnc(N2CC3(CCN(S(=O)(=O)C4CC4)C3)C2)nc1.O=C(O)C(F)(F)F,0.03128%,29.96%,31.81%
O=C(NCc1ccc(C(=O)N2CCCC2)cc1)c1cn2c(n1)CNCC2,5.322%,13.2%,-1.857%
CC(C)(C)n1ncc2c(=O)[nH]c(N3CCC4(CCCCC4)C3)nc21,-9.405%,0.8459%,15.01%
OCCN(Cc1cccnc1)c1cnc2ccccc2n1,-3.914%,15.38%,7.375%
O=C(O)C(F)(F)F.[H][C@@]12CCN(C3CCC3)C[C@]1(COc1nccc(C)n1)CCO2,-12.87%,16.19%,-1.596%
Cc1cc(NC(=O)CN2CCc3cncnc3C2)no1,-23.21%,-11.78%,-5.831%
Cc1ccnc(Cn2cc(-c3cccc(C(C)N(C)C)c3)nn2)c1 (stereo not drawn),14.53%,0.2709%,1.82%
[H][C@]12CC[C@@]3(N=C(C)N(C)C3=O)[C@@]1([H])CN(C(=O)Nc1ccc(CC)cc1)C2,-17.83%,-2.642%,-1.619%
CCc1ccc(CN2CCCCC2c2n[nH]cc2-c2cc(C)no2)cc1.Cl (stereo not drawn),53.31%,20.21%,-14.21%
CCN(CC)C(=O)Cn1ccc2cc(NC(C)=O)ccc21,3.903%,12.49%,10.93%
c1cc(CNCC2Cn3nncc3CO2)ccn1 (stereo not drawn),-24.78%,1.96%,-1.255%
CCc1cc(O)n2nc(C3CCN(C(=O)c4ccncc4)CC3)cc2n1,-2.145%,5.591%,22.71%
CCOc1nn(CC)cc1-c1nnc(SCc2ccccn2)n1C,-3.416%,-1.494%,8.088%
CN(Cc1nc(C2CC2)no1)C(=O)C1COc2ccccc2C1 (stereo not drawn),-22.41%,-85.22%,-3.325%
COCCO[C@H]1CCN(C(=O)NC2CC2)[C@H]1Cc1cnn(C)c1,-38.19%,37.83%,-4.939%
CN(C)Cc1cnc(C2CCN(C(=O)c3cccc(F)c3)C2)[nH]1 (stereo not drawn),-19.35%,-27.63%,8.011%
O=C1CC(NCc2ccncc2)CN1CCc1cccc(Cl)c1 (stereo not drawn),-25.97%,37.94%,15.73%
CCN1C(=O)CC(c2ccccc2)C12CCN(c1ncc(C)cn1)CC2 (stereo not drawn),-56.16%,15.8%,-1.862%
COc1cccc2cc(CNC(=O)N3CCCC(O)C3)oc12 (stereo not drawn),-6.596%,-5.909%,-
CC(NC(=O)Nc1ccc(-n2cncn2)cc1)C(=O)NC(C)(C)C (stereo not drawn),-5.548%,34.45%,1.053%
NCC1Cc2cc(-c3nccc(N4CCC(O)CC4)n3)cc(Cl)c2O1 (stereo not drawn),43.09%,9.708%,1.081%
CCN(c1ccc(C(=O)Nc2c(C)nn(C(C)C)c2C)cc1)C(C)C,-52.29%,-0.422%,4.716%
COc1ccc(/C=C/CN2CCN(c3nccnc3C)CC2)cc1,-24.04%,7.028%,-7.251%
CN(C)C(=O)CN1CCCC2(CCN(c3ccc(C#N)cn3)C2)C1.O=C(O)C(F)(F)F (stereo not drawn),-12.67%,8.989%,5.123%
Cc1ncc(CN(C)Cc2nc3cc(Cl)ccc3n2C)s1,-18.44%,1.919%,11.18%
CC(NC(=O)N1CCC(n2cncn2)CC1)c1ccc(F)cc1 (stereo not drawn),-16.62%,-16.01%,7.052%
CN1CCC(Cc2nc(-c3cnccn3)n(C3CCS(=O)(=O)C3)n2)CC1 (stereo not drawn),-5.543%,12.41%,12.17%
CN(Cc1csc(-c2cnn(C)c2)n1)CC1CCN(CCO)CC1,-16.46%,8.758%,-11.87%
COC1CCN(C(=O)c2cc(-c3ccc(Cl)cc3)on2)CC1,45.7%,6.1%,4.153%
CN(CCNC(=O)N1CCN(Cc2ccon2)CC1)c1ccccc1,8.06%,9.621%,-5.507%
CCOCCOC(C)C(=O)NCc1ccc(N2CCCCC2)cc1 (stereo not drawn),-36.24%,0.339%,-7.18%
C[C@@H]1CN(Cc2nnc(-c3cccnc3)o2)CC[C@]1(C)O,-51.11%,-5.994%,-8.31%
CC(=O)N1CCC2(CC1)CN(C(=O)c1cccc3[nH]ccc13)CCO2,-0.5304%,16.99%,-5.165%

Some entries from above, unchanged:

Compound,T. brucei,Leishmania in macrophages,Toxoplasma
CCOc1nn(CC)cc1-c1nnc(SCc2ccccn2)n1C,-3.416%,-1.494%,8.088%
CC(C)(C)OC(=O)N1CSC[C@@H]1C(=O)NCc1cccc(C#N)c1,-33.09%,-5.57%,14.36%
COc1ccc(/C=C/CN2CCN(c3nccnc3C)CC2)cc1,-24.04%,7.028%,-7.251%
CC(NC(=O)Nc1ccc(-n2cncn2)cc1)C(=O)NC(C)(C)C (stereo not drawn),-5.548%,34.45%,1.053%
CCOCCOC(C)C(=O)NCc1ccc(N2CCCCC2)cc1 (stereo not drawn),-36.24%,0.339%,-7.18%
COc1ccc(-n2ncc3c2NC(=O)CSC3CC(C)C)cc1 (stereo not drawn),-24.01%,33.32%,-18.21%
O=C(NCCn1ccc(-c2ccccn2)n1)c1ccncc1,-44.41%,2.184%,-2.189%